Data reported in publication doi:10.1101/2021.10.11.463801.
Read-outs that look alike come from different tables or passages of the source. These are yes or no findings as the source states them, for the method shown. For some assays here: A result given as binding can be weak or reduced; the word gives no strength. For some assays here: Tags and fused reporters may be left off the sequences shown. Values belong to the molecule of their own block, whether it stands above or below them.

Key:
[1] = target: T1, MBP-tagged JIP3[1-108] (human) (UniProt Q9UPT6); test: pull-down
T1 sequence: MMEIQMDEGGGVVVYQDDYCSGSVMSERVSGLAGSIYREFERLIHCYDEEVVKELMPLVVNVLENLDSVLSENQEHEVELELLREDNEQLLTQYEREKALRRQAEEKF

[2] = target: T1, MBP-tagged JIP3[1-108] (human); test: pull-down; remark: listed apart in the source
[3] = target: DLIC1[388-523] F447A/F448A (human); test: ITC
[4] = target: DLIC1[388-523] (human); test: ITC
[5] = target: UNC-116[675-815] (C. elegans); test: pull-down
[6] = target: GST::DLI-1[369-442] (C. elegans); test: pull-down
[7] = target: GST::KIF5C[807-956] (mouse); test: pull-down
[8] = target: GST-tagged DLIC1[388-523] (human); test: pull-down
[9] = target: DLIC1[388-523] (human); test: SEC
[10] = target: GST::KIF5C[807-956] (mouse); test: SEC

B1: JIP4[1-103] (domain or fragment, UniProt O60271-1 1-103)
chain: MELEDGVVYQEEPGGSGAVMSERVSGLAGSIYREFERLIGRYDEEVVKELMPLVVAVLENLDSVFAQDQEHQVELELLRDDNEQLITQYEREKALRKHAEEKF
- binding [3]: no binding

B2: JIP4[1-103] V55Q (domain or fragment, UniProt O60271-1 1-103)
chain: MELEDGVVYQEEPGGSGAVMSERVSGLAGSIYREFERLIGRYDEEVVKELMPLVQAVLENLDSVFAQDQEHQVELELLRDDNEQLITQYEREKALRKHAEEKF
- binding [4]: no binding

B3: MBP::UNC-16[1-120] (domain or fragment, UniProt P34609-1 1-120)
chain: MACNLSPVNEMADSITSSTPSEIVYGGPGSPDEHRTMSDKVQTMASAIYRELETMIKVHGEDGVKTLMPLVVNVLEALDLAYLERDEQTAELEMLKEDNEQLQTQYEREKALRKQTEQKY
- binding [5]: binds
- binding [6]: binds

B5: JIP3[1-108] (domain or fragment, UniProt Q9UPT6-1 1-108)
chain: MMEIQMDEGGGVVVYQDDYCSGSVMSERVSGLAGSIYREFERLIHCYDEEVVKELMPLVVNVLENLDSVLSENQEHEVELELLREDNEQLLTQYEREKALRRQAEEKF
- binding [3]: no binding
- binding [7]: binds
- binding [8]: binds
- binding [9]: binds
- binding [10]: binds

B6: JIP3[1-108] V60Q (domain or fragment, UniProt Q9UPT6-1 1-108)
chain: MMEIQMDEGGGVVVYQDDYCSGSVMSERVSGLAGSIYREFERLIHCYDEEVVKELMPLVQNVLENLDSVLSENQEHEVELELLREDNEQLLTQYEREKALRRQAEEKF
- binding [4]: no binding
- binding [7]: binds
- binding [8]: no binding
- binding [9]: no binding
- binding [10]: binds

Other lines, results leading:

- binding [1]: binds
- binding [2]: binds
Molecule: DLIC1[388-523] (human) (domain or fragment)

- binding [1]: binds
- binding [2]: binds
Molecule: GST::KIF5C[807-956] (mouse) (domain or fragment)

- binding [5]: binds
- binding [6]: no binding
B4: MBP::UNC-16[1-120] V72Q (domain or fragment, UniProt P34609-1 1-120)
chain: MACNLSPVNEMADSITSSTPSEIVYGGPGSPDEHRTMSDKVQTMASAIYRELETMIKVHGEDGVKTLMPLVQNVLEALDLAYLERDEQTAELEMLKEDNEQLQTQYEREKALRKQTEQKY
